Shown are results outside the selection of targets with a hit, which stands elsewhere. Single values of this set are uncertain. The entries are a selection whose mix differs from that of the whole data set.
Compound: COC(=O)/C=C/c1ccccc1 [methyl cinnamate]
Assay: log2 ratio of iodoacetamide-alkyne labeling of the cysteine site, DMSO over compound (competition); higher = stronger covalent engagement of the cysteine by the compound, active = 1 or more
Conditions: 500 µM; treatment time 1 h; system: HEK293T cell lysate
How it was run: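 For each cysteine, the log2 competition ratio is mean control-channel reporter intensity over mean compound-channel reporter intensity. HEK293T lysate (2 mg/mL) was exposed to vehicle or electrophile (500 µM, 1 h, ambient temperature), labelled with iodoacetamide alkyne (1 h), clicked to sCIP-TMT reagents, digested overnight with trypsin at 37 °C, streptavidin-enriched and analysed by Orbitrap Eclipse LC-MS/MS with FAIMS and FragPipe. Cysteines quantified in only one of three replicates, each with duplicate channels, were excluded.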

log2 ratio of iodoacetamide-alkyne labeling, inactive:
ABCC1 C730 (UniProt P33527) 0.22
UniProt P31270_C93 0.201
DNAJA1 C302 (UniProt P31689) 0.263
UniProt P36954_C52 0.0654
GPX4 C134 (UniProt P36969) 0.21
MYH9 C91 (UniProt P35579) -0.221
TMPO C330 (UniProt P42166) 0.0479
RFC3 C11 (UniProt P40938) 0.216
ETFB C71 (UniProt P38117) 0.0937
ADD1 C525 (UniProt P35611) 0.196
PPP1CC C105 (UniProt P36873) 0.0212
PEBP1 C168 (UniProt P30086) 0.0977
CASP3 C170 (UniProt P42574) 0.15
LRPPRC C1277 (UniProt P42704) 0.133
LONP1 C682 (UniProt P36776) 0.222
HSPA4 C245 (UniProt P34932) 0.0112
LRPPRC C330 (UniProt P42704) -0.0472
MCM4 C212 (UniProt P33991) 0.246
PSMC2 C270 (UniProt P35998) -0.0297
SDHA C266 (UniProt P31040) 0.0638
HSPA4 C376 (UniProt P34932) -0.102
KIF5B C330 (UniProt P33176) 0.281
UniProt P42285_C110 -0.0907
POLR2B C945 (UniProt P30876) 0.172
TMPO C518 (UniProt P42166) 0.179
STAT3 C259 (UniProt P40763) -0.144
RRM2 C202 (UniProt P31350) 0.135
FUS C428 (UniProt P35637) -0.0773
MCM5 C397 (UniProt P33992) 0.266
KIF5B C174 (UniProt P33176) 0.148
NUP62 C506 (UniProt P37198) 0.24
AKT2 C297 (UniProt P31751) 0.142
HSPA4 C146 (UniProt P34932) 0.013
ACAA2 C128 (UniProt P42765) 0.405
CTNNA1 C720 (UniProt P35221) 0.069
LONP1 C637 (UniProt P36776) 0.247
UniProt P42126_C114 -0.0724

Fetched one by one from the list above, three records:
log2 ratio of iodoacetamide-alkyne labeling, inactive:
RRM2 C202 (UniProt P31350) 0.135
SDHA C266 (UniProt P31040) 0.0638
HSPA4 C146 (UniProt P34932) 0.013
